Measured values reported in article PMC7069074.
No constants are given. Whether binding was seen depends on the method and setting. Binding seen in cells or lysates may run through a third protein. Some binding calls cover weakened binding; strength is not graded here.

The chains behind the UniProt entries cited, without tags or fusion partners.
UniProt P03372: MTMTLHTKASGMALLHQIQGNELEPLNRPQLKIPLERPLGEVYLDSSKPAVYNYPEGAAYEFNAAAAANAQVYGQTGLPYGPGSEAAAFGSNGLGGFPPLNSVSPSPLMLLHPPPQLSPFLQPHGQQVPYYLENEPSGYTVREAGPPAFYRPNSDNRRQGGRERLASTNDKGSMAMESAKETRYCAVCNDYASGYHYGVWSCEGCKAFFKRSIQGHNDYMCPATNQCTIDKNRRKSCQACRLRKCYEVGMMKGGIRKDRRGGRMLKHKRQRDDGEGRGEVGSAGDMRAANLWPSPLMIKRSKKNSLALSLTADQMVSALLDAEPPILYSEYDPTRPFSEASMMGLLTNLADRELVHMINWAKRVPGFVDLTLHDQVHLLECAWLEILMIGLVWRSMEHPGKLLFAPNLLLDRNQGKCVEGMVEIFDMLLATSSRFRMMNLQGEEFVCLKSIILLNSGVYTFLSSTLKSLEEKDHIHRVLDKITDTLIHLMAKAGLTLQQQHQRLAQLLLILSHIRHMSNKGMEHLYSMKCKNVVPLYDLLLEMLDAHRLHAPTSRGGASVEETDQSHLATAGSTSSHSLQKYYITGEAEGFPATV
UniProt P67809: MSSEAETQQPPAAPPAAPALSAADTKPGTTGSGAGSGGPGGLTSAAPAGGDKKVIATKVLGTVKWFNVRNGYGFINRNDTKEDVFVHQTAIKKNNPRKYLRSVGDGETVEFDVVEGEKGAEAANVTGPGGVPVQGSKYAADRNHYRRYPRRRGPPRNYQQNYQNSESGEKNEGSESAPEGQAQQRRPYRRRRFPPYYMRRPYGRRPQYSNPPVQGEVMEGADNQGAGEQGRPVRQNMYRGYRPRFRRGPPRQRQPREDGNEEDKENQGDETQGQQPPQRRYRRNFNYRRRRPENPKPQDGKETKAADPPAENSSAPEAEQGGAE

Legend:
[1] = target: estrogen receptor alpha (ERα) (human (endogenous in MCF-7 and ZR-75-1)) (UniProt P03372); assay: co-IP; lysates of MCF-7 and ZR-75-1 NCSCs (differentiated cells), and of CSCs exposed to 1% FBS; antibody on Protein G-agarose beads, lysate 12 h at 4 °C, washed three times with ice-cold PBS, western blot
[2] = target: estrogen receptor alpha (ERα) (human (endogenous in MCF-7 and ZR-75-1)) (UniProt P03372); assay: condition: only in CSCs (cancer stem cells not exposed to FBS); co-IP; lysates of MCF-7 and ZR-75-1 CSCs (without FBS); antibody on Protein G-agarose beads, lysate 12 h at 4 °C, washed three times with ice-cold PBS, western blot

Y-box binding protein 1 (YB-1) (from UniProt P67809 1-324)
binding [1]: binds | binding [2]: no binding
